Test results taken from PMC5177774.
No constants are given. Whether binding was seen depends on the method and setting. Binding seen in cells or lysates may run through a third protein. Some entries that bind do so weakly or less than the wild type. Where a sequence is shown, tags or fusion partners need not be part of it.

Sequences of proteins named here, by UniProt entry; tags and fusion partners are left off.
UniProt P35222: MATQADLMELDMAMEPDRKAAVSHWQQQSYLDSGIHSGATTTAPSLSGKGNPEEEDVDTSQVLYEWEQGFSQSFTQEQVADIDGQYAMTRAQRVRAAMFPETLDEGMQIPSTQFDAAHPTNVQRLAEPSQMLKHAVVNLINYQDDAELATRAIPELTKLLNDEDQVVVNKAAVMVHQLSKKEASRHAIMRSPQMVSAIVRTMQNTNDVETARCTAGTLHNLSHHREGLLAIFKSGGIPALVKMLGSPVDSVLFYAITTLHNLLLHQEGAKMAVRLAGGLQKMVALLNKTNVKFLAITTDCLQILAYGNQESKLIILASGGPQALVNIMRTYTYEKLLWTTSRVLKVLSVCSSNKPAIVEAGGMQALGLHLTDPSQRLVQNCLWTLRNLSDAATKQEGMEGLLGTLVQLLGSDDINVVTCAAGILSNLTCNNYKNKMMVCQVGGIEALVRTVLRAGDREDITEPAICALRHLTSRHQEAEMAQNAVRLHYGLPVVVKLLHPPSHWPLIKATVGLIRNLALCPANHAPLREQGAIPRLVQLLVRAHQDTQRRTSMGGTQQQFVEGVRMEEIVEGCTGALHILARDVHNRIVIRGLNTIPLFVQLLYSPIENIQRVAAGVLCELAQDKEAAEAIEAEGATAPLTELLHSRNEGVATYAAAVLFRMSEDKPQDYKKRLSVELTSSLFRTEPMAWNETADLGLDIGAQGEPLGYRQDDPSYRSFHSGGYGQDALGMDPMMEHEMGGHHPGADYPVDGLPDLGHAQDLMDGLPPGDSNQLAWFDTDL

Molecular target: T1, flag-Sharpin, full length (Shank-associated RH domain-interacting protein) (human) (UniProt Q9H0F6)
T1 sequence: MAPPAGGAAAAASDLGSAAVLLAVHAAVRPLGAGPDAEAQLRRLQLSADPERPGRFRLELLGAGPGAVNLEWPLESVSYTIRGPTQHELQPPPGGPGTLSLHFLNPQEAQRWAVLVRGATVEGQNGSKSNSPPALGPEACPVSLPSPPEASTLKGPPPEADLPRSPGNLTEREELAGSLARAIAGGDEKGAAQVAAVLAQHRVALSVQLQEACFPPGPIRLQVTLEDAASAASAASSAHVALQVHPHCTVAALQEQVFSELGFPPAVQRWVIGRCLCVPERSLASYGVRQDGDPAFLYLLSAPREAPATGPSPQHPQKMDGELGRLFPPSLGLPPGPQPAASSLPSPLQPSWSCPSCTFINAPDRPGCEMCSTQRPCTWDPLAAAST
Experiment: co-IP; 293T cells transfected with FG-Sharpin or its deletion mutants; lysis and wash in 50 mM Tris-HCl (pH 7.5), 150 mM NaCl, 0.5% NP-40; antibody 1 h and protein G-Sepharose 1 h at 4 °C; endogenous β-catenin detected by blot

For “endogenous β-catenin (from UniProt P35222 1-781)”, the binding was “binds”.
